Results reported in the supplement of paper PMC10735217.
Structures can show the parent of a compound that is named as a salt. The list shows a part of the results. Single values are uncertain here, since repeats match poorly.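 Human kidney-derived cells stably carry a construct in which eight TEAD-binding elements drive luciferase, measured by luminescence in a drug-repurposing library screen. A hit is any compound whose signal exceeds the plate mean by more than five robust Z scores.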

Tested on: HEK293A TEAD-LUC reporter
Assay: TEAD-luciferase reporter activity (YAP activation), robust Z score vs plate; higher = stronger YAP/TEAD activation
Settings: 24 h

Compound | TEAD-luciferase reporter activity (compound concentration: 200 nM) | TEAD-luciferase reporter activity (compound concentration: 10 uM) | TEAD-luciferase reporter activity (compound concentration: 2 uM)
OCCOCCN1CCN(C2=Nc3ccccc3Sc3ccccc32)CC1 | inactive: -1.35 | inactive: -1.17 | –
OCCOCCN1CCN(C2=Nc3ccccc3Sc3ccccc32)CC1 [quetiapine fumarate] | – | – | inactive: -2.25
COc1ccnc(CSc2nc3cc4c(cc3[nH]2)C(C)(C)C(=O)C4(C)C)c1C | inactive: 0.698 | inactive: 1.9 | inactive: -0.267
C/C=C/C[C@@H](C)[C@@H](O)[C@H]1C(=O)N[C@@H](CCC)C(=O)N(C)CC(=O)N(C)[C@@H](CC(C)C)C(=O)N[C@@H](C(C)C)C(=O)N(C)[C@@H](CC(C)C)C(=O)N[C@@H](C)C(=O)N[C@H](C)C(=O)N(C)[C@@H](CC(C)C)C(=O)N(C)[C@@H](CC(C)C)C(=O)N(C)[C@@H](C(C)C)C(=O)N1C [Geclosporin] | inactive: -0.774 | inactive: 2.72 | inactive: 0.199
Cn1c([N+](=O)[O-])cnc1/C=N/N1CC(CN2CCOCC2)OC1=O (stereo not given) [moxnidazole] | active: 5.9 | inactive: -0.178 | inactive: -0.305
CCc1cc(CCc2nc3ccccc3o2)c(=O)[nH]c1C | inactive: -1.09 | inactive: -0.153 | inactive: 0.183
CCC(=O)[C@@]1(C)[C@H](C)C[C@H]2[C@@H]3CCC4=CC(=O)C=CC4(C)[C@H]3[C@@H](O)CC21C (stereo not given in full) [Rimexolone] | inactive: 0.165 | inactive: 2.51 | inactive: 1.51
C=C(N)NCCCC[C@H](N)C(=O)O | inactive: -0.468 | inactive: -0.751 | inactive: -0.771
O=C(CCNNC(=O)c1ccncc1)NCc1ccccc1 | – | – | inactive: -0.236
O=C(CCNNC(=O)c1ccncc1)NCc1ccccc1 [N-benzyl-3-(2-isonicotinoylhydrazino)propanamide] | inactive: -1.13 | active: 6.49 | –
Cc1c(C(=O)NN2CCOCC2)nn(-c2ccc(Cl)cc2Cl)c1-c1ccc(I)cc1 | inactive: 0.0487 | inactive: -1.13 | inactive: -1.16
C[C@H]1CN(c2cccc(Cl)c2)CCN1CCCn1nc2ccccn2c1=O | inactive: 0.121 | inactive: 0.297 | inactive: -0.241
CNC(=O)c1cc(Oc2ccc(NC(=O)Nc3ccc(Cl)c(C(F)(F)F)c3)c(F)c2)ccn1 [Regorafenib] | inactive: -0.101 | inactive: 3.49 | inactive: -1.86
CCC(CC)O[C@@H]1C=C(C(=O)O)C[C@H](N)[C@H]1NC(C)=O [Oseltamivir Acid Hydrochloride] | – | – | inactive: -0.216
CCC(CC)O[C@@H]1C=C(C(=O)O)C[C@H](N)[C@H]1NC(C)=O [Oseltamivir carboxylate] | – | – | inactive: -0.861
O=C(O)C(Cc1c[nH]c2ccccc12)NS(=O)(=O)c1cccs1 (stereo not given) [N-(2-thienylsulfonyl)tryptophan] | inactive: -0.887 | inactive: -0.508 | inactive: -1.54
CN(C)C(C(=O)Nc1ccc2c(=O)[nH]ccc2c1)c1ccsc1 (stereo not given) [Verosudil] | inactive: -0.116 | inactive: 0.73 | inactive: 0.964
CCCCCCCCCCCCCCCCCC(=O)NCCCC[C@H](NC(=O)CC[C@@H](NC(=O)[C@H](C)NC(=O)[C@@H](C)O[C@H]1[C@H](O)[C@@H](CO)OC(O)[C@@H]1NC(C)=O)C(N)=O)C(=O)O (stereo not given in full) [Romurtide] | inactive: -1.32 | inactive: 0.826 | inactive: -0.973
CCC(=O)[O-] | inactive: -0.413 | inactive: 0.822 | inactive: 0.258
C/C=C(/C(=C/C)c1ccc(O)cc1)c1ccc(O)cc1 | inactive: -0.194 | inactive: -0.0288 | inactive: -1.12
COC[C@]1(OC)CC[C@H]2[C@@H]3CCC4=CC(=O)CCC4=C3[C@@H](c3ccc(/C=N/O)cc3)C[C@@]21C [Asoprisnil] | inactive: -1.29 | inactive: 3.76 | inactive: -0.723
C[C@H]1O[C@@H](O[C@H]2[C@@H](O)C[C@H](O[C@H]3[C@@H](O)C[C@H](O[C@H]4CC[C@@]5(C)[C@H](CC[C@@H]6[C@@H]5CC[C@]5(C)[C@@H](C7=CC(=O)OC7)CC[C@]65O)C4)O[C@@H]3C)O[C@@H]2C)C[C@H](O)[C@@H]1O [Digitoxin] | – | – | inactive: -2.19
C[C@H]1O[C@@H](O[C@H]2[C@@H](O)C[C@H](O[C@H]3[C@@H](O)C[C@H](O[C@H]4CC[C@@]5(C)[C@H](CC[C@@H]6[C@@H]5CC[C@]5(C)[C@@H](C7=CC(=O)OC7)CC[C@]65O)C4)O[C@@H]3C)O[C@@H]2C)C[C@H](O)[C@@H]1O | active: 39 | active: 6.99 | –
C[C@H](CO)NC(=O)c1cccc(/C=C/CCCC(=O)N(C)C)c1 | inactive: -0.993 | inactive: 1.18 | inactive: -0.192
C=CCn1c(=O)n([C@@H]2O[C@H](CO)[C@@H](O)[C@H]2O)c2nc(N)nc(O)c21 [Loxoribine] | inactive: 0.0692 | inactive: -0.264 | inactive: 0.41
CCn1c(-c2nonc2N)nc2c(C#CC(C)(C)O)ncc(OC[C@H]3CCCNC3)c21 | inactive: -0.242 | active: 24.5 | active: 21

2 entries from above in another layout:

| Compound | TEAD-luciferase reporter activity (compound concentration: 200 nM) | TEAD-luciferase reporter activity (compound concentration: 10 uM) | TEAD-luciferase reporter activity (compound concentration: 2 uM) |
| --- | --- | --- | --- |
| CCC(CC)O[C@@H]1C=C(C(=O)O)C[C@H](N)[C@H]1NC(C)=O [Oseltamivir carboxylate] | – | – | inactive: -0.861 |
| CCn1c(-c2nonc2N)nc2c(C#CC(C)(C)O)ncc(OC[C@H]3CCCNC3)c21 | inactive: -0.242 | active: 24.5 | active: 21 |
